Source: the supplement of paper PMC10849652
This is one part of the list. Residues, ends and D or L forms follow the SMILES beside them. *: point of attachment. Cbz = O=C(OCc1ccccc1)*

The chains behind the UniProt entries cited, without tags or fusion partners. Where a name states a change or a piece, a line headed by the entry shows the natural chain unless it says otherwise.
UniProt Q9H1Z4: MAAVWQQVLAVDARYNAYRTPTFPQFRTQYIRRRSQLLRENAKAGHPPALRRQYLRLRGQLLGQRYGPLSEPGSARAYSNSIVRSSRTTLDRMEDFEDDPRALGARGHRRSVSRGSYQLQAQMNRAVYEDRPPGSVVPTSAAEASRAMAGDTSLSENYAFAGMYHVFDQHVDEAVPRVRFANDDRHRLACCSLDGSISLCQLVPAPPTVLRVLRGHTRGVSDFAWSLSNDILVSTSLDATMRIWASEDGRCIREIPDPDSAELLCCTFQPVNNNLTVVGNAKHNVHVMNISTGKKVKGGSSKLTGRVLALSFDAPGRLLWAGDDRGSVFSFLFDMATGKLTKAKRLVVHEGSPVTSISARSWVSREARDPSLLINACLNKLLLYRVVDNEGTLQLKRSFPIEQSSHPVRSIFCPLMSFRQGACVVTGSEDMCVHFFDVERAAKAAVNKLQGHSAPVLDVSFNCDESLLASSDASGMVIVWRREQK
UniProt P08670, whole entry, looked up: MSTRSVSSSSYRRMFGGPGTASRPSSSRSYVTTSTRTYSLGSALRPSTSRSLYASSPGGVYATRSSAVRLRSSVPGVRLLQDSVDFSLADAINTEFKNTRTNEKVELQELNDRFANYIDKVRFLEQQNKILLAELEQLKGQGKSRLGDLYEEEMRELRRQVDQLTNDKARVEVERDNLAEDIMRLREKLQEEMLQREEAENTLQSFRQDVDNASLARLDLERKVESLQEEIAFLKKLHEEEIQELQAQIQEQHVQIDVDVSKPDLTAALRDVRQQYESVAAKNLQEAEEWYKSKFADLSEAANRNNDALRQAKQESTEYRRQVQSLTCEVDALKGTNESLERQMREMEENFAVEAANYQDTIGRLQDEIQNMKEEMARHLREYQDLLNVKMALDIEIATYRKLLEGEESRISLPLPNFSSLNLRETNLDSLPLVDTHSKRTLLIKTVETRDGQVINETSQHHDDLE
UniProt Q9Y484: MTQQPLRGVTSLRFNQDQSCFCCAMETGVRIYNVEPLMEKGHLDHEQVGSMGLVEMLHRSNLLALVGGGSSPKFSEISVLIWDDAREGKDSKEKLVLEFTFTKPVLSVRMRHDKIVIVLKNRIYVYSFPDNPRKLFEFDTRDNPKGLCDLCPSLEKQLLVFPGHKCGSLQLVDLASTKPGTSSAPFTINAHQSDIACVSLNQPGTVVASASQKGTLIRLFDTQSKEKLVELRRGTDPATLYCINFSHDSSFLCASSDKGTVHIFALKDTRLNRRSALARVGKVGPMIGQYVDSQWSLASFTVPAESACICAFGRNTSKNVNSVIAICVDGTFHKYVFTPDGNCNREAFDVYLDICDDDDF
UniProt Q9Y6W5, whole entry, looked up: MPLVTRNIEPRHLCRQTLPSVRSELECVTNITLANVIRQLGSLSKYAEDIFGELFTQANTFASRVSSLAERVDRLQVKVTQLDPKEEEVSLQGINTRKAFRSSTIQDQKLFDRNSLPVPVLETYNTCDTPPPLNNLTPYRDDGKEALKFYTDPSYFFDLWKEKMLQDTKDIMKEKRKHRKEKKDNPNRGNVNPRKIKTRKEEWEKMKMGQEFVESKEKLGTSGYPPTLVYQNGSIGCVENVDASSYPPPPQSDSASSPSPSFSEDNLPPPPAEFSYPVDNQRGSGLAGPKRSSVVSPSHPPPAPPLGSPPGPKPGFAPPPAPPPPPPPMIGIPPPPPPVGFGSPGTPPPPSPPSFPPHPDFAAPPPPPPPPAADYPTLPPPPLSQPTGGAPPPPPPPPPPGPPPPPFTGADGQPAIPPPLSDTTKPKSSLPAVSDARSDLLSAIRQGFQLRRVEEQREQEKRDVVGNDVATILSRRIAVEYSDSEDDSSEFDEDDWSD
UniProt Q96S55: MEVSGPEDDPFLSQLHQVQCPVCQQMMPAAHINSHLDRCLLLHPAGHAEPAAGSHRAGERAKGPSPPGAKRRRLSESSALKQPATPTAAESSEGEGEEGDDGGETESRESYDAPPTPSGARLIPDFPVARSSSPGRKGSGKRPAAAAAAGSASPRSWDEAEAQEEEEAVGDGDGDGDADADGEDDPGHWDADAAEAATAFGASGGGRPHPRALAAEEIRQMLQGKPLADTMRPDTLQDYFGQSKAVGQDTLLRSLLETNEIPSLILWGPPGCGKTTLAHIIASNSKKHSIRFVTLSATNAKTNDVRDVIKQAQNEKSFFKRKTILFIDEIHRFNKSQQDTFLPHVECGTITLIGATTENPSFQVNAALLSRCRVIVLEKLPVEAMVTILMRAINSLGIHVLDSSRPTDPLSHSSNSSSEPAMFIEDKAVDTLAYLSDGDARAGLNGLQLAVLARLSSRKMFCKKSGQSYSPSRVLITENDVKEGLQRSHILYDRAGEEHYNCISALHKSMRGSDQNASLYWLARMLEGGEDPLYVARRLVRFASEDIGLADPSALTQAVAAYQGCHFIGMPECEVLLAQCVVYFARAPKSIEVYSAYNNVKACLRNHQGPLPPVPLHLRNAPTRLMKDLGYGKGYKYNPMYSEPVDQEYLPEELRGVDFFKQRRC
UniProt Q9BUR4: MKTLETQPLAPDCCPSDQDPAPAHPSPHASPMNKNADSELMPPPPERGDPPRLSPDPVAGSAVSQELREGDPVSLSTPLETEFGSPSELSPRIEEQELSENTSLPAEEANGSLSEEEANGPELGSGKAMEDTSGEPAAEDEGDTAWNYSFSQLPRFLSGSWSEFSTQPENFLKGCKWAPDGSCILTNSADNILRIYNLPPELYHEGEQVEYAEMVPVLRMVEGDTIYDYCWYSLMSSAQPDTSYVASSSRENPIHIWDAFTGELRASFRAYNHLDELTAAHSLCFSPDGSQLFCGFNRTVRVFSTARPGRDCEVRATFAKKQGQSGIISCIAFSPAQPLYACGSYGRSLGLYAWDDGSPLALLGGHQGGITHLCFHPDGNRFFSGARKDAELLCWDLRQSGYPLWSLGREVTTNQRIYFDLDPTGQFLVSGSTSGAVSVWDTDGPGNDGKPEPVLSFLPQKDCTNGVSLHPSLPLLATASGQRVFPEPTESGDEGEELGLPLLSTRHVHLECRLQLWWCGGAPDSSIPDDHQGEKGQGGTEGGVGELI
UniProt O95785: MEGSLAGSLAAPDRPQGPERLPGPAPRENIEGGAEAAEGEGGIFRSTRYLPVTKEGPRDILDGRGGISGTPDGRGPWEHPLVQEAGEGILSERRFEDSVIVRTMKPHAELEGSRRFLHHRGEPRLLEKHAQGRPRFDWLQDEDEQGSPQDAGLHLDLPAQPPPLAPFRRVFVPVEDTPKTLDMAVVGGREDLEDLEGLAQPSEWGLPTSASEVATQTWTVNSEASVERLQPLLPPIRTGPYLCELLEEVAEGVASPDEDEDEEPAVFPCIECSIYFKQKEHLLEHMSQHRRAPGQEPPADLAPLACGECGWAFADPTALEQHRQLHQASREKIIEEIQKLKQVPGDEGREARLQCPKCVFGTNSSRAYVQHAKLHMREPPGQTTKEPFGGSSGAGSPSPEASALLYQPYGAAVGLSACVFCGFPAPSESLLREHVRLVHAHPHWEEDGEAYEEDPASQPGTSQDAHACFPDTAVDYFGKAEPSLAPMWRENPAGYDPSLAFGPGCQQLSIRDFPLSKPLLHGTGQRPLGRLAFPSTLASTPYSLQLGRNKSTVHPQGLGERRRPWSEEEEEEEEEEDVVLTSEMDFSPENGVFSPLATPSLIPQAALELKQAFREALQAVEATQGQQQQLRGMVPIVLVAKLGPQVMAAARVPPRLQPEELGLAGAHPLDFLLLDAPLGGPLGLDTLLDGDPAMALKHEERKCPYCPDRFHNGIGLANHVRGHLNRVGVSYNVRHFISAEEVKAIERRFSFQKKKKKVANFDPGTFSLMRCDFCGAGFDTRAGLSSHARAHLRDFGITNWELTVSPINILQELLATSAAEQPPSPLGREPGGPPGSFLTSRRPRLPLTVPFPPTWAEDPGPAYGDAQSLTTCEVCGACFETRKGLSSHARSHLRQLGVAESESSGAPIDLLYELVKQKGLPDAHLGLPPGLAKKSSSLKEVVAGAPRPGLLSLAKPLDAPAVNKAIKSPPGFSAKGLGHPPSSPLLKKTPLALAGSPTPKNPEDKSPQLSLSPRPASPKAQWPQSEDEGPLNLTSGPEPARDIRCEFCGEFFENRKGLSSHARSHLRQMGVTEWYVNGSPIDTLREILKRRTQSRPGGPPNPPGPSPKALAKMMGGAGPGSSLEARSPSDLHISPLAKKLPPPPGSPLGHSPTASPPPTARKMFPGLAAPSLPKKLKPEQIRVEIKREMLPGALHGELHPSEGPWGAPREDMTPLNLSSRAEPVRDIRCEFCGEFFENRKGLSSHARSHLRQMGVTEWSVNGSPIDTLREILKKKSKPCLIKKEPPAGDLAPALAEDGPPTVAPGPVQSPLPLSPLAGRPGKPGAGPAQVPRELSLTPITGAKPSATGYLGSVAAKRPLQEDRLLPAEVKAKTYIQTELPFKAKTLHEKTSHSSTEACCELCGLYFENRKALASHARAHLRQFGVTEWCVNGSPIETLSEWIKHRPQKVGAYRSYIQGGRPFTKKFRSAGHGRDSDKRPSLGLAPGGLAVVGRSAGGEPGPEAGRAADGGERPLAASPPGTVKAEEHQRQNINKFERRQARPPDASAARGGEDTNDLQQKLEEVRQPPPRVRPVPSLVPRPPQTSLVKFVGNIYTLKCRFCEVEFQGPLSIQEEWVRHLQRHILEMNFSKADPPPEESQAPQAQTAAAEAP
UniProt Q9NNW5: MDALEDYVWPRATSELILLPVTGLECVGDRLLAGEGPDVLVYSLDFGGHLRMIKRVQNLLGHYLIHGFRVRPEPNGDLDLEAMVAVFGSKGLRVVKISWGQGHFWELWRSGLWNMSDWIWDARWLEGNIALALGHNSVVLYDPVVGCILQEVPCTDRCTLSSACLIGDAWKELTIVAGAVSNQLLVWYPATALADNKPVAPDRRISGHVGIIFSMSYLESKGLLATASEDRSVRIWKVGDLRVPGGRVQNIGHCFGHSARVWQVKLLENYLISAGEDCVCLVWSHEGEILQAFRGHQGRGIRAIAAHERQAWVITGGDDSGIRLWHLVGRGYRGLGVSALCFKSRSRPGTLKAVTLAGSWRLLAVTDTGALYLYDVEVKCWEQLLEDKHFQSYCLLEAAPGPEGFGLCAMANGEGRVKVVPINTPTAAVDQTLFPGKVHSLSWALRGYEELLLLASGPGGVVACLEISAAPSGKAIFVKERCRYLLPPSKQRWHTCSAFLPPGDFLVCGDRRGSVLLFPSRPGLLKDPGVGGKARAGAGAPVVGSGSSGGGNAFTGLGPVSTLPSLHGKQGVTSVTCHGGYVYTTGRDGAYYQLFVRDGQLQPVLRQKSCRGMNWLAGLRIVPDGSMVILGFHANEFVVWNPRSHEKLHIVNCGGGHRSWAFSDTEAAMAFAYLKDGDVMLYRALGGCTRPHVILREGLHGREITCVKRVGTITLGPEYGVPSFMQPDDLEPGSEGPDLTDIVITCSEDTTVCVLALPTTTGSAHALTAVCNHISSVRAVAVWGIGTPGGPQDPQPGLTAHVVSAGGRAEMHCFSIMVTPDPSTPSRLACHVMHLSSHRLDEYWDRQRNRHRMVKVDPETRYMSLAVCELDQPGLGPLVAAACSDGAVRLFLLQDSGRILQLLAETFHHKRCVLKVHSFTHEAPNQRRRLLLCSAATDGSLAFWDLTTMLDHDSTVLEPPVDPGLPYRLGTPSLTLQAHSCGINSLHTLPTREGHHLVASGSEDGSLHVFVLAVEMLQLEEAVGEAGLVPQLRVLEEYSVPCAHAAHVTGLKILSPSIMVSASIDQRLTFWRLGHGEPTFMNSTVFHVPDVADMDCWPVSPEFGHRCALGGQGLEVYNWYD
UniProt Q6RFH5: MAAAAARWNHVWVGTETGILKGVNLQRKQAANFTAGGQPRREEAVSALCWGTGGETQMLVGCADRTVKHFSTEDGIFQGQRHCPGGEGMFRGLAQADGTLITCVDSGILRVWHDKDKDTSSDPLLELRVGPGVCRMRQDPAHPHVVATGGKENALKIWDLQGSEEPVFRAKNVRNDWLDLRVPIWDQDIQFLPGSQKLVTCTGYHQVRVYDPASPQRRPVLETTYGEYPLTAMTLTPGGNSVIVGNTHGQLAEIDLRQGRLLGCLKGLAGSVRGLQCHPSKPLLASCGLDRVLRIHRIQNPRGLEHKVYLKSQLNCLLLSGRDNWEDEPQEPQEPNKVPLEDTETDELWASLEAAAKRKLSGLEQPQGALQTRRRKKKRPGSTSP

How the values were obtained:
Test in all cases: log2 fold change, soluble protein after heating vs DMSO (PISA); higher = thermal stabilisation; K562 cells, 10 uM, 30 min; active = over 0.2 and 3.5 SD of the protein, either way, in both replicates (recomputed)
[1] = compound: C#Cc1cccc(Nc2ncnc3cc(OCCOC)c(OCCOC)cc23)c1 [erlotinib]
Procedure, shortened: (§1)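 K562 cells at 2×10^6 cells/mL were treated for 30 min with 10 μM compound, and aliquots were heated for 3 min over 48°C-58°C before pooling. Extraction used PBS with 0.5% NP-40 at 4°C, and soluble protein was the supernatant after 21,000xg for 90 min, measured by TMTpro 16plex LC-MS/MS with channel sums equalised. Thermal stability values, relative to control samples and from duplicates, are log2 fold changes.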

[2] = compound: C/C(=N\NC(=O)C1=CC(=CC=C1)S(=O)(=O)N2CCOCC2)/C3=C(C=CC(=C3)Cl)O
Procedure, shortened: as §1

[3] = compound: C1=CC(=C(C=C1Cl)C2=NC3=NC=CN=C3C(=N2)NC4=CC=NC=C4)F
Procedure, shortened: as §1

[4] = compound: C1=CC(=CC=C1C2=NC3=C(N2)C=C(C=C3)C(=O)N)OC4=CC=C(C=C4)Cl
Procedure, shortened: as §1

[5] = compound: C1=CC2=C(C=CC(=C2)/C=C\3/C(=O)NC(=NCC4=CC=CS4)S3)N=C1
Procedure, shortened: as §1

[6] = compound: C1=CC2=NC=CN=C2C=C1/C=C/3\C(=O)NC(=O)S3
Procedure, shortened: as §1

[7] = compound: C1=CC=C(C=C1)C2=NC(=C(N2)C3=CC=NC=C3)C4=CC(=C(C=C4)Cl)O
Procedure, shortened: as §1

[8] = compound: C1=CC=C2C(=C1)C3=NNC4=CC=CC(=C43)C2=O
Procedure, shortened: as §1

[9] = compound: C1CCN(C1)C(=O)NC2=CC=CC(=C2)NC3=NC=C(C(=N3)NCCC4=CN=CN4)Br
Procedure, shortened: as §1

[10] = compound: C1CN(CCC1(CC2=CC=C(C=C2)Cl)N)C3=NC=NC4=C3C=CN4
Procedure, shortened: as §1

[11] = compound: C1COCCN1CCN2C3=CC=CC=C3N=C2NC(=O)C4=CC(=CC=C4)[N+](=O)[O-] [IRAK-1-4 Inhibitor I]
Procedure, shortened: as §1

[12] = compound: C=CC(=O)N1CCC[C@@H](n2nc(-c3ccc(Oc4ccccc4)cc3)c3c(N)ncnc32)C1 [ibrutinib]
Procedure, shortened: as §1

[13] = compound: CC(=O)c1cnc2ccc(-c3cc(Cl)c(O)c(Cl)c3)nc2c1N[C@H]1CC[C@H](CN(C)C)CC1
Procedure, shortened: as §1

[14] = compound: CC(C)(C)Cn1c(N)nc2ccc(-c3[nH]c(C(C)(C)C)nc3-c3ccc(F)cc3)nc21 [ralimetinib]
Procedure, shortened: as §1

[15] = compound: CC(C)(O)CC(=O)NCCn1ccc2ncnc(Nc3ccc(Oc4cccc(C(F)(F)F)c4)c(Cl)c3)c21
Procedure, shortened: as §1

[16] = compound: CC(C)C1=C2N=C(C=C(N2N=C1)NCC3=CC=CC=C3)NCCCCCCN
Procedure, shortened: as §1

[17] = compound: CC(C)C[C@@H](C=O)NC(=O)[C@H](CC(C)C)NC(=O)[C@H](CC(C)C)NC(=O)OCc1ccccc1
Procedure, shortened: as §1

[18] = compound: CC(C)N(C[C@H]1O[C@@H](n2cnc3c(N)ncnc32)[C@H](O)[C@@H]1O)[C@H]1C[C@@H](CCc2nc3cc(C(C)(C)C)ccc3[nH]2)C1 [pinometostat]
Procedure, shortened: as §1

[19] = compound: CC1=C(C(CC(=O)N1)C2=CC=C(C=C2)C(F)(F)F)C(=O)NC3=C(C=C4C(=C3)C=NN4)F
Procedure, shortened: as §1

[20] = compound: CC1=C(C2=C(C=C1)C(=O)C3=CC=CC=C3N2CCCN)C
Procedure, shortened: as §1

Measured: log2 fold change

WDR13 (UniProt Q9H1Z4)
inactive: [1] 0.014 | [2] 0.03 | [3] 0.019 | [4] 0.057 | [5] 0.024 | [6] -0.012 | [7] 0.019 | [8] 0.024 | [9] 0.004 | [10] 0.033 | [11] -0.053 | [12] -0.023 | [13] -0.07 | [14] -0.094 | [15] -0.033 | [16] 0.051 | [17] 0.065 | [18] -0.06 | [19] 0.095 | [20] 0.032

WDR5 (UniProt P61964)
inactive: [1] -0.096 | [2] -0.056 | [3] -0.246 | [4] 0.087 | [5] -0.056 | [6] 0.02 | [7] -0.032 | [8] 0.015 | [9] 0.011 | [10] -0.028 | [11] -0.072 | [12] 0.022 | [13] 0.032 | [14] 0.073 | [15] 0.025 | [16] 0.061 | [17] 0.007 | [18] 0.104 | [19] 0.055 | [20] -0.013

VPS35 (UniProt Q96QK1)
inactive: [1] -0.004 | [2] 0.025 | [3] 0.103 | [4] 0.013 | [5] 0.009 | [6] 0.014 | [7] 0.042 | [8] 0.01 | [9] 0.021 | [10] 0.058 | [11] 0.059 | [12] -0.009 | [13] -0.014 | [14] -0.017 | [15] -0.079 | [16] -0.072 | [17] -0.066 | [18] -0.019 | [19] 0.026 | [20] 0.008

VIM (UniProt P08670)
inactive: [1] -0.053 | [2] -0.146 | [3] -0.292 | [4] 0.141 | [5] -0.155 | [6] 0.084 | [7] -0.144 | [8] -0.111 | [9] 0.025 | [10] -0.168 | [11] -0.136 | [12] 0.2 | [13] 0.123 | [14] 0.217 | [15] 0.399 | [16] -0.029 | [17] 0.035 | [18] 0.168 | [19] 0.081 | [20] -0.257

WDR45 (UniProt Q9Y484)
inactive: [1] 0.053 | [2] 0.031 | [3] 0.017 | [4] -0.022 | [5] 0.027 | [6] 0.066 | [7] -0.011 | [8] -0.031 | [9] 0.016 | [10] 0.028 | [11] 0.03 | [12] -0.018 | [13] -0.025 | [14] -0.071 | [15] -0.049 | [16] -0.048 | [17] -0.022 | [18] -0.017 | [19] -0.001 | [20] 0.051

WDR82 (UniProt Q6UXN9)
inactive: [1] -0.064 | [2] -0.072 | [3] -0.159 | [4] -0.008 | [5] -0.03 | [6] -0.018 | [7] -0.019 | [8] -0.006 | [9] 0.049 | [10] -0.065 | [11] -0.094 | [12] -0.018 | [13] 0.118 | [14] 0.034 | [15] 0.036 | [16] 0.08 | [17] -0.009 | [18] 0.116 | [19] -0.013 | [20] 0.031

WASF2 (UniProt Q9Y6W5)
inactive: [1] -0.017 | [2] 0.019 | [3] -0.109 | [4] 0.013 | [5] -0.013 | [6] 0.016 | [7] -0.043 | [8] -0.054 | [9] 0.031 | [10] 0.036 | [11] 0.034 | [12] -0.025 | [13] -0.026 | [14] -0.012 | [15] 0.008 | [16] -0.023 | [17] 0.088 | [18] -0.023 | [19] 0.042 | [20] -0.082

WBP2 (UniProt Q969T9)
inactive: [1] 0.015 | [2] 0.045 | [3] -0.027 | [4] 0.024 | [5] -0.105 | [6] -0.03 | [7] 0.02 | [8] -0.005 | [9] -0.019 | [10] -0.002 | [11] 0.042 | [12] 0.081 | [13] 0.082 | [14] -0.045 | [15] -0.019 | [16] -0.012 | [17] 0.004 | [18] -0.012 | [19] -0.006 | [20] -0.071

WRNIP1 (UniProt Q96S55)
inactive: [1] 0.108 | [2] 0.186 | [3] 0.065 | [4] -0.181 | [5] 0.126 | [6] 0.001 | [7] 0.025 | [8] -0.06 | [9] 0 | [10] -0.138 | [11] -0.049 | [12] -0.144 | [13] -0.362 | [14] 0.007 | [15] -0.409 | [16] -0.388 | [17] -0.041 | [18] 0.06 | [19] 0.028 | [20] -0.142

WRAP53 (UniProt Q9BUR4)
inactive: [1] -0.082 | [2] -0.022 | [3] -0.028 | [4] 0.023 | [5] 0.037 | [6] 0.005 | [7] 0.007 | [8] -0.062 | [9] 0.099 | [10] -0.043 | [11] 0.008 | [12] 0.033 | [13] -0.089 | [14] 0.026 | [15] 0.028 | [16] 0.017 | [17] 0.07 | [18] -0.015 | [19] -0.075 | [20] -0.012

WIZ (UniProt O95785)
inactive: [1] 0.016 | [2] 0.027 | [3] -0.054 | [4] 0.016 | [5] 0.02 | [6] 0.023 | [7] 0.029 | [8] -0.069 | [9] -0.068 | [10] 0.009 | [11] -0.013 | [12] 0.014 | [13] -0.187 | [14] 0.053 | [15] -0.081 | [16] -0.047 | [17] 0.01 | [18] 0.032 | [19] 0.059 | [20] 0.044

VPS13C (UniProt Q709C8)
inactive: [1] 0.015 | [2] 0.042 | [3] 0.083 | [4] 0.005 | [5] 0.075 | [6] 0.035 | [7] 0.013 | [8] -0.012 | [9] -0.023 | [10] 0.02 | [11] 0.006 | [12] -0.024 | [13] -0.026 | [14] -0.014 | [15] -0.033 | [16] -0.109 | [17] -0.027 | [18] 0.012 | [19] 0 | [20] 0.048

WDR6 (UniProt Q9NNW5)
inactive: [1] 0.008 | [2] 0.042 | [3] -0.058 | [4] 0.043 | [5] -0.036 | [6] -0.02 | [7] -0.032 | [8] -0.01 | [9] 0.014 | [10] -0.01 | [11] -0.038 | [12] 0.016 | [13] 0.006 | [14] 0.048 | [15] -0.012 | [16] -0.095 | [17] -0.036 | [18] 0.07 | [19] 0.012 | [20] -0.023

VPS26C (UniProt O14972)
inactive: [1] -0.05 | [2] 0.098 | [3] 0.025 | [4] 0.018 | [5] 0.018 | [6] 0.011 | [7] -0.069 | [8] 0.008 | [9] -0.099 | [10] 0.078 | [11] -0.109 | [12] 0.071 | [13] -0.042 | [14] -0.015 | [15] -0.05 | [16] -0.073 | [17] 0.051 | [18] 0.046 | [19] 0.197 | [20] 0.046

WDR74 (UniProt Q6RFH5)
inactive: [1] -0.067 | [2] -0.2 | [3] -0.224 | [4] -0.011 | [5] -0.053 | [6] -0.014 | [7] -0.085 | [8] -0.003 | [9] -0.004 | [10] -0.135 | [11] -0.125 | [12] 0.04 | [13] 0.189 | [14] 0.083 | [15] 0.016 | [16] 0.015 | [17] 0.138 | [18] 0.152 | [19] -0.068 | [20] 0.027

WIZ isoform 3 (UniProt O95785)
inactive: [1] 0.053 | [2] -0.044 | [3] -0.036 | [4] 0.01 | [5] -0.056 | [6] 0.055 | [7] -0.027 | [8] 0.02 | [9] -0.012 | [10] 0.09 | [11] -0.044 | [12] -0.075 | [13] -0.043 | [14] 0.023 | [15] -0.011 | [16] -0.031 | [17] 0.005 | [18] 0.027 | [19] 0.061 | [20] 0.039
